The values that follow come from article PMC3585367.

The chains behind the UniProt entries cited, without tags or fusion partners.
UniProt O15524: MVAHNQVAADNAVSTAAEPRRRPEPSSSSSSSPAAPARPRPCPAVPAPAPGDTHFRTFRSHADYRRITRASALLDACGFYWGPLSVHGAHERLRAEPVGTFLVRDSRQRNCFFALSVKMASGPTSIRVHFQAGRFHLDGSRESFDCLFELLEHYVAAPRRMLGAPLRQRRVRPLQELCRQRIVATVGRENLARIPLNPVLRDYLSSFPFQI

In the experiment the target is T1, CYTIP (cytohesin interacting protein), endogenous in mature dendritic cells (human (endogenous in monocyte derived dendritic cells)) (UniProt O60759).
T1 sequence: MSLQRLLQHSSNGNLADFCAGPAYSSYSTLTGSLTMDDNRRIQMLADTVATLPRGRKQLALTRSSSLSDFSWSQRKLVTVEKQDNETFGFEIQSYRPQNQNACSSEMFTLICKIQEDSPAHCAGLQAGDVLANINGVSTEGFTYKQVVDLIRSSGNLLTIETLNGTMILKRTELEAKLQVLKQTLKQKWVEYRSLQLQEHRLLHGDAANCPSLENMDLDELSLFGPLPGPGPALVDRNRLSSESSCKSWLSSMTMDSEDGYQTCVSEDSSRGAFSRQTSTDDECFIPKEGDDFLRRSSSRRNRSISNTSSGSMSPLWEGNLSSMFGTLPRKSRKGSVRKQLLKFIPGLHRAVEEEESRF
The experiment in a line: co-IP; 2 mg lysate of mature dendritic cells in modified RIPA buffer; rat anti CYTIP antibody 1A3, 4 h at 4 C, Protein L agarose overnight at 4 C; Western blot for SOCS-1. A general note: A western blot detects proteins with antibodies after separation by electrophoresis.

These are yes or no findings as the source states them, for the method shown. In cells and extracts the contact can be indirect. Some binding calls cover weakened binding; strength is not graded here.

Turning to “Suppressor of cytokine signaling-1 (SOCS-1), endogenous in mature dendritic cells (from UniProt O15524 1-211)”, the binding result is “binds”.
